Experimental data published in the supplement of paper PMC6411743.
± gives the standard deviation of the averaged measurements. The list shows a part of the results, in another mix than the full data. Small differences around the control level are noise.

Protein sequences, listed by entry. Tags and fused reporters are not part of them. Lines headed by an entry give the natural chain unless they say otherwise; changes in a name come on top.
UniProt Q9NSE4: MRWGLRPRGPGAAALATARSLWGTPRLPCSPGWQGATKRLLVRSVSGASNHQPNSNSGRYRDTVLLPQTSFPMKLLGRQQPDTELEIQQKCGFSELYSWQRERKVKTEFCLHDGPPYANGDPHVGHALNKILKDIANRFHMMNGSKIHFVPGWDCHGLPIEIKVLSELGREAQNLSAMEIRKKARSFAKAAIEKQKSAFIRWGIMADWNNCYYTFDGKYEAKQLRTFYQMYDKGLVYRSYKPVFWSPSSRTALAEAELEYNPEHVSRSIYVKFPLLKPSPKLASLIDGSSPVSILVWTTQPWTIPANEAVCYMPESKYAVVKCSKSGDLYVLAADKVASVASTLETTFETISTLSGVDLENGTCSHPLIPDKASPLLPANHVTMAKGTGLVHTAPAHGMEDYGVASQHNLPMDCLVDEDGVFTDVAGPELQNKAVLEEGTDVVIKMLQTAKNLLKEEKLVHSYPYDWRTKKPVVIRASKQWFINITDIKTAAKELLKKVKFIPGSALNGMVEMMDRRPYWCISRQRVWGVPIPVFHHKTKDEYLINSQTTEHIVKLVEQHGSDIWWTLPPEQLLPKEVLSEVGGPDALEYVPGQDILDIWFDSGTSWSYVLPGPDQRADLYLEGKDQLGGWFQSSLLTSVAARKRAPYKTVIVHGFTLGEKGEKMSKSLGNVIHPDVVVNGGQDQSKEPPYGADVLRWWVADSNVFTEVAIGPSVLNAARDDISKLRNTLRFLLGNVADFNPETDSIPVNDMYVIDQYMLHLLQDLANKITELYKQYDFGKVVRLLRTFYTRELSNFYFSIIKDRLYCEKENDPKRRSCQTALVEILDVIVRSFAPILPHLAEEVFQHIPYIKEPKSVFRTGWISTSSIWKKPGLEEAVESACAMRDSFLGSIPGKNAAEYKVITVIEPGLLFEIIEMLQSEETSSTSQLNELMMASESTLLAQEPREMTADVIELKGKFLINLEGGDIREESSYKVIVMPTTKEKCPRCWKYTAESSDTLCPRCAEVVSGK
UniProt Q9UBP0: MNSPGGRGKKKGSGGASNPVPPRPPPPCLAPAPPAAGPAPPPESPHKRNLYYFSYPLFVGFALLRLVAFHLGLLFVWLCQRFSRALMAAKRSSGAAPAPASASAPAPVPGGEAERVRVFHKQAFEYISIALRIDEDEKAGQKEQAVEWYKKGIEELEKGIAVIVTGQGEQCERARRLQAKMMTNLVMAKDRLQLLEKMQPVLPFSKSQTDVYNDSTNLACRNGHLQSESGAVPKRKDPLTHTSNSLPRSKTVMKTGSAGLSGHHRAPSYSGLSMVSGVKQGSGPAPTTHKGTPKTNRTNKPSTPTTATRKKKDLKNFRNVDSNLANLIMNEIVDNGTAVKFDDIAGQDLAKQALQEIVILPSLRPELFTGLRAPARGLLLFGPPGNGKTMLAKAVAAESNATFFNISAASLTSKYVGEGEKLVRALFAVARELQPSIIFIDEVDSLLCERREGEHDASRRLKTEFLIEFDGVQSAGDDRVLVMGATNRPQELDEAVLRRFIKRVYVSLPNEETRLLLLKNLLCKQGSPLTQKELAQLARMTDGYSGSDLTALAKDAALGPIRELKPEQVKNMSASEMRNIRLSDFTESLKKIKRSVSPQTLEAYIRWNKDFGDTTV
UniProt Q9NRN7: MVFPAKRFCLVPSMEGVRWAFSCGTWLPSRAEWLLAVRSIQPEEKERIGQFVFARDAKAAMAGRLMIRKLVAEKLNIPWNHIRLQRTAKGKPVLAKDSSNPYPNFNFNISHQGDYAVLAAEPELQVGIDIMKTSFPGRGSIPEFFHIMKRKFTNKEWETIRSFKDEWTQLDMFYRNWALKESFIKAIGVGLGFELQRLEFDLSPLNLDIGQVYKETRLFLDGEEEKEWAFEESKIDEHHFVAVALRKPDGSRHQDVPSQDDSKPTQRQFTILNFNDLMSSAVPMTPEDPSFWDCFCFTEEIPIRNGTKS
UniProt Q9NSC5: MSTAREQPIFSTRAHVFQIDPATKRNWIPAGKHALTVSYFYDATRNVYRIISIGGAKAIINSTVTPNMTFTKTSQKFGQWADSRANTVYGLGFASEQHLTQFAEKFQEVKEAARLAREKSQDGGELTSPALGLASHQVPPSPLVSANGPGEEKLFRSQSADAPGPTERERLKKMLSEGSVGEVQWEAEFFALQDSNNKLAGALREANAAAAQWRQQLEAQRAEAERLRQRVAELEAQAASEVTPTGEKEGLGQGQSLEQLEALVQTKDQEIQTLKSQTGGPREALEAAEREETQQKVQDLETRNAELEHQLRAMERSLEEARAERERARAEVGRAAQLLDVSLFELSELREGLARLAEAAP
UniProt Q9NUG6, whole entry: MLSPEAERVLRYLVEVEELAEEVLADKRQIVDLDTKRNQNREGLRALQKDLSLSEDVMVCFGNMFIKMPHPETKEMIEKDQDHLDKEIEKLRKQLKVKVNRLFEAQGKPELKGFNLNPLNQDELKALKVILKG
UniProt Q9P2K8: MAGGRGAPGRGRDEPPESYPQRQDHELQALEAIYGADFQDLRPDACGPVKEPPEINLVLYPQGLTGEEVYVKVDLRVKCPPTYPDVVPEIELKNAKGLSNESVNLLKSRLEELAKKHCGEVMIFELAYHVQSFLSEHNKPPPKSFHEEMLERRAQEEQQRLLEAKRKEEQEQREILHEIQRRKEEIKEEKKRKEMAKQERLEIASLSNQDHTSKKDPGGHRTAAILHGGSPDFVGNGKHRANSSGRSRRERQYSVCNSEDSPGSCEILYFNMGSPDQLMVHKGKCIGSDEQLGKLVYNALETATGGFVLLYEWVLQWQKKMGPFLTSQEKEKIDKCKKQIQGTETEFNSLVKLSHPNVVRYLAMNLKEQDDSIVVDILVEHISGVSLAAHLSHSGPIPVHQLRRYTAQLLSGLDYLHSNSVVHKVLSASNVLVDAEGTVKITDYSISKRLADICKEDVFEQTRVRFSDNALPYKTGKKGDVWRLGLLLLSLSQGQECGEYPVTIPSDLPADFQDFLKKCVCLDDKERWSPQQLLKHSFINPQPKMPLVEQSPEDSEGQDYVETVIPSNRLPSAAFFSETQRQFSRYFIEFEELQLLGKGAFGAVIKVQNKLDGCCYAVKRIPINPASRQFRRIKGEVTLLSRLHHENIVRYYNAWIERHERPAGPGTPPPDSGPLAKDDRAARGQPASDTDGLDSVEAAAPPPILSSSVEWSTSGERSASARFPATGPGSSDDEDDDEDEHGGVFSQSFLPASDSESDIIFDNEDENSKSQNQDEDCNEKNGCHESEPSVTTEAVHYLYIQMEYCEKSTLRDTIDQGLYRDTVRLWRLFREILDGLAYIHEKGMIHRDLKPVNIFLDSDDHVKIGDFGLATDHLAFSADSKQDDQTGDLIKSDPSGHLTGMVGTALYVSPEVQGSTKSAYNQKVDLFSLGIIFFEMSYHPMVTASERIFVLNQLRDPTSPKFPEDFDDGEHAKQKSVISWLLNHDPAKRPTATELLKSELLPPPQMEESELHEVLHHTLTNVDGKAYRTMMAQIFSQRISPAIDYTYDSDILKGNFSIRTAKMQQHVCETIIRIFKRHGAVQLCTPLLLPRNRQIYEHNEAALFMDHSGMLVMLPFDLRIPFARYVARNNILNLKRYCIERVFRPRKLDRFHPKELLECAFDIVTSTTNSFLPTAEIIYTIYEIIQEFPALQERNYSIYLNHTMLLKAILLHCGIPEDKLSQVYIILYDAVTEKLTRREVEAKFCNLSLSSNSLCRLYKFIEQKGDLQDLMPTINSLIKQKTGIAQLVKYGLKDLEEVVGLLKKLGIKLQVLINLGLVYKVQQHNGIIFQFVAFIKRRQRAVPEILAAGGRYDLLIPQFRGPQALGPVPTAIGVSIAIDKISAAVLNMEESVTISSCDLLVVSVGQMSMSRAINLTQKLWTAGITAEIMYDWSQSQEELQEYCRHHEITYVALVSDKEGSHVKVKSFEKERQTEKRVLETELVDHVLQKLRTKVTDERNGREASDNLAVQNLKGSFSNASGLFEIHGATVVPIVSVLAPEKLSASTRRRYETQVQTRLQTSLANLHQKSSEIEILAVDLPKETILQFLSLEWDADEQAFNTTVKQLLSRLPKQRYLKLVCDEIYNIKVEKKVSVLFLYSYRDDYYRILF
UniProt Q9UBM7: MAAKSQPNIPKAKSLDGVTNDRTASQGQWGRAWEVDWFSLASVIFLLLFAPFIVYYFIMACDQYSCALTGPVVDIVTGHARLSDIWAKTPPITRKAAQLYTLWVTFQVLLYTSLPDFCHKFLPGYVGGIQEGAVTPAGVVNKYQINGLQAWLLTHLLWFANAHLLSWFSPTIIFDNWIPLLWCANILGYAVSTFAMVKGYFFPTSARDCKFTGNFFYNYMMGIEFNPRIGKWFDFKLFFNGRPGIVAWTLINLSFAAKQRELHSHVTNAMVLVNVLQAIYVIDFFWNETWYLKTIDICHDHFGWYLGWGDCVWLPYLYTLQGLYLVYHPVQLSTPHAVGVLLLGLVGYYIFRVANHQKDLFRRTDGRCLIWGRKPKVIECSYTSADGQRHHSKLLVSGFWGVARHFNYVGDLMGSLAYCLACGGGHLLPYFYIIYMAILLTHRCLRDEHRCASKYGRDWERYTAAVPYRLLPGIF
UniProt Q9NUT2: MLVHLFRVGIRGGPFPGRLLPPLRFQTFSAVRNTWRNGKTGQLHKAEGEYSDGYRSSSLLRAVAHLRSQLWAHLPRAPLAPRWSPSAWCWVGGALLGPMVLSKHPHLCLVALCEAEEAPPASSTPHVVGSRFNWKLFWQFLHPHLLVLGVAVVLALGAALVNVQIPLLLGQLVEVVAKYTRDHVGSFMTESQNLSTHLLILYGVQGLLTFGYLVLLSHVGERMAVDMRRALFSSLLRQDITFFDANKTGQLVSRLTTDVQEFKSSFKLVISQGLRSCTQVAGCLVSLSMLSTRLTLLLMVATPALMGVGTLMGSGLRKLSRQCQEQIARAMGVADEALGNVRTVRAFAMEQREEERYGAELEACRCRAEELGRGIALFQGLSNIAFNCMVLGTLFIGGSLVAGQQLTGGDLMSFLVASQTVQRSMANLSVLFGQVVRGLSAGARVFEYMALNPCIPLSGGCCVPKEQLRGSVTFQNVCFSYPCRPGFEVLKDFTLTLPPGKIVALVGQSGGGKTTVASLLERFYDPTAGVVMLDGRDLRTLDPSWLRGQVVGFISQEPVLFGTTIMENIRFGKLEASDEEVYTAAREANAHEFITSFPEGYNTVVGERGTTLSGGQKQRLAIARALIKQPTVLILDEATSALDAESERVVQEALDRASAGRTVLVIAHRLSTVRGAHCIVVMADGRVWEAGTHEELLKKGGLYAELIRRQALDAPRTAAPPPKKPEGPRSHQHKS
UniProt Q9P260: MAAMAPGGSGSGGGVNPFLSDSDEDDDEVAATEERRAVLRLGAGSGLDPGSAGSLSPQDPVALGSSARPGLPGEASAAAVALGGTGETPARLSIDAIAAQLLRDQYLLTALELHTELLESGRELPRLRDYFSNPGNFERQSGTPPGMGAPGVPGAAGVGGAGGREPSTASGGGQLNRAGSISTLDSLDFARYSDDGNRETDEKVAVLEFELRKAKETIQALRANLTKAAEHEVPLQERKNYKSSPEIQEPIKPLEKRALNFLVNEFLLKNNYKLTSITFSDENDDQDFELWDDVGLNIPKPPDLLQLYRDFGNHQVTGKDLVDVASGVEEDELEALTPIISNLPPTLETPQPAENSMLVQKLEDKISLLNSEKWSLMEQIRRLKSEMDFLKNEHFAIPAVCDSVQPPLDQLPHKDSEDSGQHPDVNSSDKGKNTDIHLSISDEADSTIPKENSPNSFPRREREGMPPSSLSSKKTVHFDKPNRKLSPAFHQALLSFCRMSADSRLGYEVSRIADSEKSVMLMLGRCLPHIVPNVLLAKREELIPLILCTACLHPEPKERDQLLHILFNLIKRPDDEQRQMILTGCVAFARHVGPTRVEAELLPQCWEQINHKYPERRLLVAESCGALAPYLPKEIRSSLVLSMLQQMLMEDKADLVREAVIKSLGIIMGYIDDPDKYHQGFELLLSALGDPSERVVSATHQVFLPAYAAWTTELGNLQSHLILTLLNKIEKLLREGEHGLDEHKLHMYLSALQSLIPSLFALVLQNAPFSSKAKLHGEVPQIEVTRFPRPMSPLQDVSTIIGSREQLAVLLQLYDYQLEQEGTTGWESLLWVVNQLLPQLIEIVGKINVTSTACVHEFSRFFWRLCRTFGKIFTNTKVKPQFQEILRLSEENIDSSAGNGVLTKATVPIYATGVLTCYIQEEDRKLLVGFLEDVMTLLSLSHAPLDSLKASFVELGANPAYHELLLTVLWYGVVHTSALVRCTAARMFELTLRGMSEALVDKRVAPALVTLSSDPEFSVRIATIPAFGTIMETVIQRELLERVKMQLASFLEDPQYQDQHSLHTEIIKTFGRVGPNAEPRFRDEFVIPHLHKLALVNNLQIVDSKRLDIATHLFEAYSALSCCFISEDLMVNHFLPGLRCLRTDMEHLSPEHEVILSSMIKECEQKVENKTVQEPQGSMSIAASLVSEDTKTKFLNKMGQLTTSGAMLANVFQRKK

Compound: Nc1ncnc2c1ncn2[C@@H]1O[C@H](COP(=O)(O)OP(=O)(O)NP(=O)(O)O)[C@@H](O)[C@H]1O [adenylyl imidodiphosphate]
Test: NP40-soluble protein abundance relative to vehicle (solubility fold change) (ratio); higher = more soluble protein in presence of AMP-PNP
Method in brief: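 In three independent experiments, Jurkat crude lysate made by Dounce homogenisation was treated for 10 min at room temperature and then 3 min at 37 °C with eight concentrations ranging from 0.1 to 10 mM. It was then solubilised with 0.8% NP40 plus benzonase for 60 min at 4 °C and ultracentrifuged. The supernatant was TMT-labelled for LC-MS/MS, and each value is the fold change against the detergent-processed vehicle for the same replicate, using vsn-normalised intensities.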

UniProt Q9NXN4 and related entries was tested, and the NP40-soluble protein abundance (concentration: 0.1mM) was 1.02 ± 0.033 and the NP40-soluble protein abundance (concentration: 0.5mM) was 0.979 ± 0.016.
Target LARS (UniProt Q9P2J5) has an NP40-soluble protein abundance (concentration: 0.1mM) of 1.04 ± 0.041 and an NP40-soluble protein abundance (concentration: 0.5mM) of 1 ± 0.087.
With DNAJC17 (UniProt Q9NVM6) the NP40-soluble protein abundance (concentration: 0.1mM) was 1.03 ± 0.02 and the NP40-soluble protein abundance (concentration: 0.5mM) was 1.04 ± 0.031.
FAM49B (UniProt Q9NUQ9) was tested, and the NP40-soluble protein abundance (concentration: 0.1mM) was 0.9738 ± 0.0068 and the NP40-soluble protein abundance (concentration: 0.5mM) was 1.02 ± 0.029.
Target ABHD10 (UniProt Q9NUJ1) has an NP40-soluble protein abundance (concentration: 0.1mM) of 0.9984 ± 0.0061 and an NP40-soluble protein abundance (concentration: 0.5mM) of 1.03 ± 0.054.
Work on IARS2 (UniProt Q9NSE4) yielded an NP40-soluble protein abundance (concentration: 0.1mM) of 0.99 ± 0.031 and an NP40-soluble protein abundance (concentration: 0.5mM) of 0.973 ± 0.077.
UniProt Q9P107 and related entries was tested, and the NP40-soluble protein abundance (concentration: 0.1mM) was 0.993 ± 0.044 and the NP40-soluble protein abundance (concentration: 0.5mM) was 0.997 ± 0.063.
UniProt Q9UBP0 and related entries showed an NP40-soluble protein abundance (concentration: 0.1mM) of 1.11 ± 0.092 and an NP40-soluble protein abundance (concentration: 0.5mM) of 1.1 ± 0.071.
In the case of SMYD2 (UniProt Q9NRG4), the NP40-soluble protein abundance (concentration: 0.1mM) is reported as 0.982 ± 0.034 and the NP40-soluble protein abundance (concentration: 0.5mM) is reported as 0.986 ± 0.034.
AASDHPPT (UniProt Q9NRN7) gave an NP40-soluble protein abundance (concentration: 0.1mM) of 0.971 ± 0.047 and an NP40-soluble protein abundance (concentration: 0.5mM) of 0.945 ± 0.098.
Target UniProt Q9NQW6 and related entries has an NP40-soluble protein abundance (concentration: 0.1mM) of 0.98 ± 0.031 and an NP40-soluble protein abundance (concentration: 0.5mM) of 1.01 ± 0.023.
For ZNFX1 (UniProt Q9P2E3), the NP40-soluble protein abundance (concentration: 0.1mM) was 1 ± 0.018 and the NP40-soluble protein abundance (concentration: 0.5mM) was 0.969 ± 0.035.
UniProt Q9NWY4 showed an NP40-soluble protein abundance (concentration: 0.1mM) of 1.02 ± 0.023 and an NP40-soluble protein abundance (concentration: 0.5mM) of 1 ± 0.041.
In the case of UniProt Q9NUB1 and related entries, the NP40-soluble protein abundance (concentration: 0.1mM) is reported as 1 ± 0.031 and the NP40-soluble protein abundance (concentration: 0.5mM) is reported as 0.975 ± 0.071.
UniProt Q9NUP7 showed an NP40-soluble protein abundance (concentration: 0.1mM) of 1 ± 0.04 and an NP40-soluble protein abundance (concentration: 0.5mM) of 0.988 ± 0.051.
UniProt Q9NUM4 and related entries showed an NP40-soluble protein abundance (concentration: 0.1mM) of 1 ± 0.057 and an NP40-soluble protein abundance (concentration: 0.5mM) of 0.983 ± 0.051.
Target UniProt Q9NWF9 and related entries has an NP40-soluble protein abundance (concentration: 0.1mM) of 0.997 ± 0.057 and an NP40-soluble protein abundance (concentration: 0.5mM) of 0.9909 ± 0.0065.
Work on UniProt Q9NV96 and related entries yielded an NP40-soluble protein abundance (concentration: 0.1mM) of 0.924 ± 0.049 and an NP40-soluble protein abundance (concentration: 0.5mM) of 0.9909 ± 0.0088.
UniProt Q9NSC5 and related entries showed an NP40-soluble protein abundance (concentration: 0.1mM) of 1.001 ± 0.0079 and an NP40-soluble protein abundance (concentration: 0.5mM) of 0.986 ± 0.04.
For PDRG1 (UniProt Q9NUG6), the NP40-soluble protein abundance (concentration: 0.1mM) was 0.977 ± 0.016 and the NP40-soluble protein abundance (concentration: 0.5mM) was 1.02 ± 0.047.
UniProt Q9NUV9 and related entries gave an NP40-soluble protein abundance (concentration: 0.1mM) of 1.02 ± 0.013 and an NP40-soluble protein abundance (concentration: 0.5mM) of 1.05 ± 0.058.
UniProt Q9P2K8 and related entries showed an NP40-soluble protein abundance (concentration: 0.1mM) of 1.01 ± 0.029 and an NP40-soluble protein abundance (concentration: 0.5mM) of 0.974 ± 0.047.
For CPSF2 (UniProt Q9P2I0), the NP40-soluble protein abundance (concentration: 0.1mM) was 1.01 ± 0.021 and the NP40-soluble protein abundance (concentration: 0.5mM) was 1.02 ± 0.017.
Target UniProt Q9P0J0 and related entries has an NP40-soluble protein abundance (concentration: 0.1mM) of 0.996 ± 0.057 and an NP40-soluble protein abundance (concentration: 0.5mM) of 0.93 ± 0.11.
In the case of KIF13B (UniProt Q9NQT8), the NP40-soluble protein abundance (concentration: 0.1mM) is reported as 0.983 ± 0.026 and the NP40-soluble protein abundance (concentration: 0.5mM) is reported as 0.961 ± 0.021.
FANCI (UniProt Q9NVI1) was tested, and the NP40-soluble protein abundance (concentration: 0.1mM) was 0.993 ± 0.019 and the NP40-soluble protein abundance (concentration: 0.5mM) was 1.02 ± 0.018.
With DHCR7 (UniProt Q9UBM7) the NP40-soluble protein abundance (concentration: 0.1mM) was 1.02 ± 0.021 and the NP40-soluble protein abundance (concentration: 0.5mM) was 1 ± 0.035.
Target UniProt Q9UBD5 and related entries has an NP40-soluble protein abundance (concentration: 0.1mM) of 1 ± 0.026 and an NP40-soluble protein abundance (concentration: 0.5mM) of 0.99 ± 0.014.
In the case of PANK4 (UniProt Q9NVE7), the NP40-soluble protein abundance (concentration: 0.1mM) is reported as 1.06 ± 0.051 and the NP40-soluble protein abundance (concentration: 0.5mM) is reported as 1 ± 0.052.
In the case of UniProt Q9NWU2, the NP40-soluble protein abundance (concentration: 0.1mM) is reported as 1.02 ± 0.056 and the NP40-soluble protein abundance (concentration: 0.5mM) is reported as 0.994 ± 0.033.
Work on MPP6 (UniProt Q9NZW5) yielded an NP40-soluble protein abundance (concentration: 0.1mM) of 0.997 ± 0.023 and an NP40-soluble protein abundance (concentration: 0.5mM) of 0.994 ± 0.046.
Target UniProt Q9NZL9 and related entries has an NP40-soluble protein abundance (concentration: 0.1mM) of 1.07 ± 0.018 and an NP40-soluble protein abundance (concentration: 0.5mM) of 0.9954 ± 0.0041.
For UniProt Q9NRZ7 and related entries, the NP40-soluble protein abundance (concentration: 0.1mM) was 0.978 ± 0.027 and the NP40-soluble protein abundance (concentration: 0.5mM) was 0.988 ± 0.032.
Target UniProt Q9NUT2 and related entries has an NP40-soluble protein abundance (concentration: 0.1mM) of 1.08 ± 0.022 and an NP40-soluble protein abundance (concentration: 0.5mM) of 1 ± 0.053.
For EXOSC3 (UniProt Q9NQT5), the NP40-soluble protein abundance (concentration: 0.1mM) was 1.04 ± 0.048 and the NP40-soluble protein abundance (concentration: 0.5mM) was 0.997 ± 0.031.
In the case of EIF2B3 (UniProt Q9NR50), the NP40-soluble protein abundance (concentration: 0.1mM) is reported as 0.986 ± 0.025 and the NP40-soluble protein abundance (concentration: 0.5mM) is reported as 0.964 ± 0.026.
UniProt Q9P260 and related entries showed an NP40-soluble protein abundance (concentration: 0.1mM) of 1.018 ± 0.0095 and an NP40-soluble protein abundance (concentration: 0.5mM) of 0.993 ± 0.014.
In the case of NECAP2 (UniProt Q9NVZ3), the NP40-soluble protein abundance (concentration: 0.1mM) is reported as 0.993 ± 0.015 and the NP40-soluble protein abundance (concentration: 0.5mM) is reported as 1.01 ± 0.033.
With UniProt Q9NV56 the NP40-soluble protein abundance (concentration: 0.1mM) was 0.994 ± 0.058 and the NP40-soluble protein abundance (concentration: 0.5mM) was 1.02 ± 0.12.
Work on UniProt Q9P0L0 and related entries yielded an NP40-soluble protein abundance (concentration: 0.1mM) of 0.99 ± 0.017 and an NP40-soluble protein abundance (concentration: 0.5mM) of 1.03 ± 0.066.
UniProt Q9NWK9 and related entries gave an NP40-soluble protein abundance (concentration: 0.1mM) of 1.02 ± 0.024 and an NP40-soluble protein abundance (concentration: 0.5mM) of 1 ± 0.024.
With AATF (UniProt Q9NY61) the NP40-soluble protein abundance (concentration: 0.1mM) was 0.93 ± 0.02 and the NP40-soluble protein abundance (concentration: 0.5mM) was 0.943 ± 0.032.
Target RBM28 (UniProt Q9NW13) has an NP40-soluble protein abundance (concentration: 0.1mM) of 1 ± 0.023 and an NP40-soluble protein abundance (concentration: 0.5mM) of 1.03 ± 0.049.
Target UniProt Q9P2K3-3|Q9P2K3-4 has an NP40-soluble protein abundance (concentration: 0.1mM) of 0.98 ± 0.039 and an NP40-soluble protein abundance (concentration: 0.5mM) of 1 ± 0.048.
Target UniProt Q9NW75 and related entries has an NP40-soluble protein abundance (concentration: 0.1mM) of 0.998 ± 0.022 and an NP40-soluble protein abundance (concentration: 0.5mM) of 1.05 ± 0.043.
Target TMOD2 (UniProt Q9NZR1) has an NP40-soluble protein abundance (concentration: 0.1mM) of 0.9938 ± 0.0076 and an NP40-soluble protein abundance (concentration: 0.5mM) of 0.987 ± 0.071.
Work on UniProt Q9NWV4 yielded an NP40-soluble protein abundance (concentration: 0.1mM) of 0.956 ± 0.024 and an NP40-soluble protein abundance (concentration: 0.5mM) of 1.02 ± 0.045.
DPP3 (UniProt Q9NY33) was tested, and the NP40-soluble protein abundance (concentration: 0.1mM) was 0.995 ± 0.014 and the NP40-soluble protein abundance (concentration: 0.5mM) was 1 ± 0.037.
Work on UniProt Q9NQH7 and related entries yielded an NP40-soluble protein abundance (concentration: 0.1mM) of 1.05 ± 0.023 and an NP40-soluble protein abundance (concentration: 0.5mM) of 1.02 ± 0.018.
